The values below come from publication doi:10.1101/869123.

The test concerns the target GST-tagged γ-tubulin (UniProt P23258). As to the kind of experiment: pull-down.

No constants are given. Whether binding was seen depends on the method and setting. Binding can be weak; no strength is given.

In the case of “His-tagged CRIPT, bacteria expressed (from UniProt Q9P021 1-101)”, the binding entry was “binds”.
